Results reported in article PMC3448598, “A Role for the CAL1-Partner Modulo in Centromere Integrity and Accurate Chromosome Segregation in Drosophila” (PLoS ONE, 2012).

Target: T1, FLAG-CAL1 (Drosophila, UniProt Q9VEN2 1-979)
T1 construct: Chromosome Alignment 1 (CAL1), Drosophila; The results say the fusion is expressed under the endogenous CAL1 promoter, the methods say under the pCopia promoter; also called FLAG-tagged CAL1; Chromosome Alignment 1; source: Drosophila S2 cells stably expressing FLAG-CAL1, in chromatin-free extract / nuclear (chromatin) extract; not shown: FLAG, N-terminal, kept
T1 sequence (looked up): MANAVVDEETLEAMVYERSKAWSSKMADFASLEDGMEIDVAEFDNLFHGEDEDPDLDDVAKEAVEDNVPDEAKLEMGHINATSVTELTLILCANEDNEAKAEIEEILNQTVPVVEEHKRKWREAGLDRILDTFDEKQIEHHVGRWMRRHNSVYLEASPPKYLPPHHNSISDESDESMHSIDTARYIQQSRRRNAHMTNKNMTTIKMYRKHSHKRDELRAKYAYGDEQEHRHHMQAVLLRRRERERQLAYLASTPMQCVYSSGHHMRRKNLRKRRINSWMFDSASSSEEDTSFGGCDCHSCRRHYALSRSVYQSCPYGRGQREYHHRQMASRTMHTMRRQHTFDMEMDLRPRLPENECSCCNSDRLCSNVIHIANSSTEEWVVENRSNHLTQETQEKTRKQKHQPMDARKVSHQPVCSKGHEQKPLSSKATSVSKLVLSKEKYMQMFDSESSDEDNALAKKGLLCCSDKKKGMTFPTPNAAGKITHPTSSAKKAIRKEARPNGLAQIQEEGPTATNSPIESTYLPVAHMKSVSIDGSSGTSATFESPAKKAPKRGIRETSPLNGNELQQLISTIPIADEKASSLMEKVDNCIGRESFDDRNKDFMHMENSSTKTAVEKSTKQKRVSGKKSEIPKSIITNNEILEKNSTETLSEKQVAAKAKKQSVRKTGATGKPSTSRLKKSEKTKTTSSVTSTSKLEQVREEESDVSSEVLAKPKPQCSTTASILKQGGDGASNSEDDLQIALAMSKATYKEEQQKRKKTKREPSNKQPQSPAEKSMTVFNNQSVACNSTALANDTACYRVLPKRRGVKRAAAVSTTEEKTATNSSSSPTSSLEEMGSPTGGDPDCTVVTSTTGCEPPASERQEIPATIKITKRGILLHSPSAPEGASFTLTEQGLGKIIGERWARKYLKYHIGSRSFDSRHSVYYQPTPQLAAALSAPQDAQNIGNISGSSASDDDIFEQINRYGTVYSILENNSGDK
Experiment: affinity purification with mass spectrometry; FLAG-bead IP from chromatin-free extracts of 1x10^9 S2 cells stably expressing FLAG-CAL1 (untagged S2 cells as control); eluate digested with trypsin and LysC, LC-MS/MS

binding: binds
B1: Modulo (natural protein, Drosophila (endogenous in S2 cells), UniProt P13469 1-542, looked up)
chain: MAQKKAVTVKGKKATNGEEKPLAKRVTKSTKVQEEETVVPQSPSKKSRKQPVKEVPQFSEEDESDVEEQNDEQPGDDSDFETEEAAGLIDDEAEEDEEYNSDDEEDDDDDELEPGEVSKSEGADEVDESDDDEEAPVEKPVSKKSEKANSEKSEENRGIPKVKVGKIPLGTPKNQIVFVTNLPNEYLHKDLVALFAKFGRLSALQRFTNLNGNKSVLIAFDTSTGAEAVLQAKPKALTLGDNVLSVSQPRNKEENNERTVVVGLIGPNITKDDLKTFFEKVAPVEAVTISSNRLMPRAFVRLASVDDIPKALKLHSTELFSRFITVRRISQESISRTSELTLVVENVGKHESYSSDALEKIFKKFGDVEEIDVVCSKAVLAFVTFKQSDAATKALAQLDGKTVNKFEWKLHRFERSTSGRAILVTNLTSDATEADLRKVFNDSGEIESIIMLGQKAVVKFKDDEGFCKSFLANESIVNNAPIFIEPNSLLKHRLLKKRLAIGQTRAPRKFQKDTKPNFGKKPFNKRPAQENGGKSFVKRARF
notes: Modulo, Drosophila nucleolar protein, endogenous in S2 cells; runs as a 75 KDa protein; also called nucleolar protein Modulo; Drosophila nucleolin homolog; source: endogenous, Drosophila S2 cells, in chromatin-free extract / nuclear (chromatin) extract

Results are given in words; binding and its absence hold for the method and conditions named. In cells and extracts the contact can be indirect. Here binding means that the protein was enriched with, or labelled near, the bait; the list need not be complete.
